Some of the results follow. Small differences around the control level are noise.

Chains of the proteins cited; added tags and fusions are not shown. Lines headed by an entry give the natural chain unless they say otherwise; changes in a name come on top.
UniProt Q9D0D5: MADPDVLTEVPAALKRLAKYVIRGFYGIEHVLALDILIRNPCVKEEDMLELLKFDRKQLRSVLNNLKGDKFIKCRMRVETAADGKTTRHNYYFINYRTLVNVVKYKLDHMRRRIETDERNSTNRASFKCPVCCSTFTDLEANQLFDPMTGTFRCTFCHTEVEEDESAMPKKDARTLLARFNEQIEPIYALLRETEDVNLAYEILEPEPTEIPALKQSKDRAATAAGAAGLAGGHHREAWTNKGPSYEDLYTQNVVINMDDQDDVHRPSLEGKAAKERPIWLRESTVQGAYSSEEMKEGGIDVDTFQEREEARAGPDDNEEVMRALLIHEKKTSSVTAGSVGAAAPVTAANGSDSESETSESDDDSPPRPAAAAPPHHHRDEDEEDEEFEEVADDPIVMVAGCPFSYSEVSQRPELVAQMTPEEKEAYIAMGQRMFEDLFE
UniProt Q9CZA6: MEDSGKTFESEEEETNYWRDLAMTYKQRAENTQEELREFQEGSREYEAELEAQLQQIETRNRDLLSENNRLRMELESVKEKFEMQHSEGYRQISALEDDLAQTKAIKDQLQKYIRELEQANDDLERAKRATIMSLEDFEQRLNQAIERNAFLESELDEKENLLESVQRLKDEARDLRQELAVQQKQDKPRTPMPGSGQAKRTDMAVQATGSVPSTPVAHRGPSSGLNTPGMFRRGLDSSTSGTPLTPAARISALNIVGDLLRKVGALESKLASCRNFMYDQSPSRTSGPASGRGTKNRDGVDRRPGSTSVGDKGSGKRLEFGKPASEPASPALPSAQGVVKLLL
UniProt Q9CR70: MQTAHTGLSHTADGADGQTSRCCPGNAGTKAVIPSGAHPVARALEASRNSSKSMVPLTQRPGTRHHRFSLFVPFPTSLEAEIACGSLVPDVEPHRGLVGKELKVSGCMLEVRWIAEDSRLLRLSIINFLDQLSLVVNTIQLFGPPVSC
UniProt Q9CZP7: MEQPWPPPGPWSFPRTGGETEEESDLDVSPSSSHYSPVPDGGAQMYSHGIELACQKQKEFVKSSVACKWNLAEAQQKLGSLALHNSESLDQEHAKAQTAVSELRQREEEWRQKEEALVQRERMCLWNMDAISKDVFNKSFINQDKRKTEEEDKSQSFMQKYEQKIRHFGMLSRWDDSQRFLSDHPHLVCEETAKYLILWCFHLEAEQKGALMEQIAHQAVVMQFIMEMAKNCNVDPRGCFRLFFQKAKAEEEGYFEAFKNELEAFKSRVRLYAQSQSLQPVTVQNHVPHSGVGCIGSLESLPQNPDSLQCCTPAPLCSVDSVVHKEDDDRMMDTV
UniProt Q9CZ83, whole entry: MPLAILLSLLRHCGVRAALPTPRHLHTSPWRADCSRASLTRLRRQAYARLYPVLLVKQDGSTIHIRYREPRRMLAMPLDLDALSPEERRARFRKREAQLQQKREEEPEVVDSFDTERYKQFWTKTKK
UniProt Q9D0B5: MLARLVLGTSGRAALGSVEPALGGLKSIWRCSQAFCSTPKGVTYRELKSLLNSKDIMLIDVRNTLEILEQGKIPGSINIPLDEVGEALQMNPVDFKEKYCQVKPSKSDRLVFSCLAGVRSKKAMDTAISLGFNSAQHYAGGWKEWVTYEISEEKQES
UniProt Q9CY18: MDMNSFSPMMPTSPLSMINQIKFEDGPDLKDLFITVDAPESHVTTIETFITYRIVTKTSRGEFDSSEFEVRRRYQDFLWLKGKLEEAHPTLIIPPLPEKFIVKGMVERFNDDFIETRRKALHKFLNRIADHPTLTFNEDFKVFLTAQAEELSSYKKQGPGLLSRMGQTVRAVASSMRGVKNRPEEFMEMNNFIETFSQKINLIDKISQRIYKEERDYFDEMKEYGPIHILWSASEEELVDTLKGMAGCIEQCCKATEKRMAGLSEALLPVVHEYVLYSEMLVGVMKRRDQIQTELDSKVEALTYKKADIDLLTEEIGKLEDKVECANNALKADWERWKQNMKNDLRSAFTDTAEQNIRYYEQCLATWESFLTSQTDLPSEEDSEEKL
UniProt Q9CZB0: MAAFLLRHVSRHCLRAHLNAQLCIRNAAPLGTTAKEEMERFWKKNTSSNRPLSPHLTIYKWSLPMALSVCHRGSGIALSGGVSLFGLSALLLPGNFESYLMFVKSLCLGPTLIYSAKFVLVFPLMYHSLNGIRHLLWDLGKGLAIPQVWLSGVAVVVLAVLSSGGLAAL
UniProt Q9CZB3: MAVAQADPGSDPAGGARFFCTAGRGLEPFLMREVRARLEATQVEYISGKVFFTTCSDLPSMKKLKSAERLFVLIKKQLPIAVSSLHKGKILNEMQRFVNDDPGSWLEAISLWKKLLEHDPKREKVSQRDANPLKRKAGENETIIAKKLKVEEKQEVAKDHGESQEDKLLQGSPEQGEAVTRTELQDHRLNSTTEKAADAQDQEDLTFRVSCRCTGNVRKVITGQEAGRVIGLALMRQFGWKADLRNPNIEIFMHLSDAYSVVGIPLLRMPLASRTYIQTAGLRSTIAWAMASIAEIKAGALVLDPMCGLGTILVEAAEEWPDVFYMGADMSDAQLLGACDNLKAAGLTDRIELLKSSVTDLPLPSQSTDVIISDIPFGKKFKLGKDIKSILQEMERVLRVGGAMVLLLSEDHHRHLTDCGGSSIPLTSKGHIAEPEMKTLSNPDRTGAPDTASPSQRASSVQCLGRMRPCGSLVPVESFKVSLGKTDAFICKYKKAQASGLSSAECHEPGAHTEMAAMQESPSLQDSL
UniProt Q9CU62: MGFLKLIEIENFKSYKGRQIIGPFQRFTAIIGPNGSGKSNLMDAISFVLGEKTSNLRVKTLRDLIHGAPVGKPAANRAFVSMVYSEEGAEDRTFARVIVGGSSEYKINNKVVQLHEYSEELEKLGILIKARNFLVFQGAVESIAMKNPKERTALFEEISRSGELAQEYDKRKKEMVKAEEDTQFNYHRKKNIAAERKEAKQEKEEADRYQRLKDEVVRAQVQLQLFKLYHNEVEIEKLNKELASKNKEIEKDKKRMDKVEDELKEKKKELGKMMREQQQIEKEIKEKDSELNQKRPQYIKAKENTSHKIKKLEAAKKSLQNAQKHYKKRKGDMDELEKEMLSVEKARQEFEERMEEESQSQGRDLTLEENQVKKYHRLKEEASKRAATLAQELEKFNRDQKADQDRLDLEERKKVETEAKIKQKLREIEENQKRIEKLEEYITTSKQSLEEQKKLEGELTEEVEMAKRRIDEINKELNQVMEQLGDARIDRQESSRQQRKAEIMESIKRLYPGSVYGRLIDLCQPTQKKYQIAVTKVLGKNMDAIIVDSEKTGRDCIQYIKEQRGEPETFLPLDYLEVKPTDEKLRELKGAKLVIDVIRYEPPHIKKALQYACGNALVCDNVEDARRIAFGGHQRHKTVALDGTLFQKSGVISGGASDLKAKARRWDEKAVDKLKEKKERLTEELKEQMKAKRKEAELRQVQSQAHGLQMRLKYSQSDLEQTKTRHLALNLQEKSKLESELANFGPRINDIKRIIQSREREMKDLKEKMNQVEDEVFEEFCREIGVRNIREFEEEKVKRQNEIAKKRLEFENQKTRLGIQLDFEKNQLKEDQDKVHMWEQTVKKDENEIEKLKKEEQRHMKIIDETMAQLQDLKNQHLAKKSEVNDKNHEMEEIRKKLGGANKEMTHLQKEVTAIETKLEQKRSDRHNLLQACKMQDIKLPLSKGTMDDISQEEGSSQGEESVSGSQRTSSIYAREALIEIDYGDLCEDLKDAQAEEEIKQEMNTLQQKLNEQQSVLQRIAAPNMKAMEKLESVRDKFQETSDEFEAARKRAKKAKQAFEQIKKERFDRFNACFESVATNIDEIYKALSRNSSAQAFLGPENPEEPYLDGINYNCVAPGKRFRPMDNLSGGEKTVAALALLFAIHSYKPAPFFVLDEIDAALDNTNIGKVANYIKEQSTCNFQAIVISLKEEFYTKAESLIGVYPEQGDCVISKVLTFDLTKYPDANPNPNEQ
UniProt Q9CR83: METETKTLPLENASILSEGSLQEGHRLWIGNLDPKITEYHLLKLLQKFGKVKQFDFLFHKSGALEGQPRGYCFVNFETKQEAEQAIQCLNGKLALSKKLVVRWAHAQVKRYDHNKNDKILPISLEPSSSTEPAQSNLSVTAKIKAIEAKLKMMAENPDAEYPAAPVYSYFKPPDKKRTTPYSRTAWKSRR
UniProt Q9D0G0, whole entry: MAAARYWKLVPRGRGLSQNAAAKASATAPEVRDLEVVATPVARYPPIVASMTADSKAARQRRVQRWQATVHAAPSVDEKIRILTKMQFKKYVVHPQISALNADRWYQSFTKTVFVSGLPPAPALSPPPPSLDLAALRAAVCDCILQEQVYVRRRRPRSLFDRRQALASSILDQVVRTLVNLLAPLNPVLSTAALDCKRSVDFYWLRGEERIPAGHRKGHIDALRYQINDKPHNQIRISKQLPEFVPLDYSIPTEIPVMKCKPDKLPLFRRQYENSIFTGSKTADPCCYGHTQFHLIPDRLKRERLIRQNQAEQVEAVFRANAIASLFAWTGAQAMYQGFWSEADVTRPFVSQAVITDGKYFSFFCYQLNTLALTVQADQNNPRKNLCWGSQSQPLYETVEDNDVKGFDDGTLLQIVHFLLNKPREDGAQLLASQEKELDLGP
UniProt Q9CUX1: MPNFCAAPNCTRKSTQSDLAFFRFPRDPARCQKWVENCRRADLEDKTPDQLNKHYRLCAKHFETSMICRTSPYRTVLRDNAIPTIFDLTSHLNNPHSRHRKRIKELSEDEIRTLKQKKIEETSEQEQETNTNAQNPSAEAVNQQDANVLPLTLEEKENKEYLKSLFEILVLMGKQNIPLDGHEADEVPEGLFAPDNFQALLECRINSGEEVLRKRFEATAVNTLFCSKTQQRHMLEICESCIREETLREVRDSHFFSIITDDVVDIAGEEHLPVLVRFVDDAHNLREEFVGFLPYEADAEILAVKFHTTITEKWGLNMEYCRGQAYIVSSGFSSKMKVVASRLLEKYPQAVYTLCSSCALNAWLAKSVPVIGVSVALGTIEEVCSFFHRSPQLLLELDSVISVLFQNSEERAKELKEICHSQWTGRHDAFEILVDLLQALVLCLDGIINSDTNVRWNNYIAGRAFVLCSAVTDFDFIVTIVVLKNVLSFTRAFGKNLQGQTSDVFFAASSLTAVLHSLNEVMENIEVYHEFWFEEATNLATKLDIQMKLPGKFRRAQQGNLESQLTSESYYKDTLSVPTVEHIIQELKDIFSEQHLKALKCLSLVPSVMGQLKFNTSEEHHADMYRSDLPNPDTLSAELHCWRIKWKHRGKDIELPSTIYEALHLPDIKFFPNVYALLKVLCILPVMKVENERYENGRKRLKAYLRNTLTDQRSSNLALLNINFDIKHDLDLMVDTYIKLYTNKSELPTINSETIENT
UniProt Q9D0C1, whole entry: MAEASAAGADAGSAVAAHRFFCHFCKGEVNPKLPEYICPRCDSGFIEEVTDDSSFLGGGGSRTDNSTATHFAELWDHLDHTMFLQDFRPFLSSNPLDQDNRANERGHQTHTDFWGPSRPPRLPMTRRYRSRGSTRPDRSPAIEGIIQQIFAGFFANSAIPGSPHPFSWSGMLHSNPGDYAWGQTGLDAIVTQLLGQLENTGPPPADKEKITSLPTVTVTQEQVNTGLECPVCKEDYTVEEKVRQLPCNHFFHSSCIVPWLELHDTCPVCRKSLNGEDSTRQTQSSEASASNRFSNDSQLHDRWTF
UniProt Q9CZB6: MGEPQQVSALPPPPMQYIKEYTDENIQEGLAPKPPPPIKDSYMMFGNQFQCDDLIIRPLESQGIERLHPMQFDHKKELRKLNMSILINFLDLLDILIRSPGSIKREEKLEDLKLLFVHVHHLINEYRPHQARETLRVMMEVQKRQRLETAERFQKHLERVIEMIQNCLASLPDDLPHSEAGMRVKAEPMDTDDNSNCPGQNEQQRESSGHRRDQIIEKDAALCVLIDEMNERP
UniProt Q9CWT3: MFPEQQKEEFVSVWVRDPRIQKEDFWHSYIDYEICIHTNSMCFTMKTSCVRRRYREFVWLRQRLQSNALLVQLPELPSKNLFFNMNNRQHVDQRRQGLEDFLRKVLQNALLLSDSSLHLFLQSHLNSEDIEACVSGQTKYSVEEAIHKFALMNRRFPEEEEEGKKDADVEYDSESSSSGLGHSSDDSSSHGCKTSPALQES
UniProt Q9CWK8: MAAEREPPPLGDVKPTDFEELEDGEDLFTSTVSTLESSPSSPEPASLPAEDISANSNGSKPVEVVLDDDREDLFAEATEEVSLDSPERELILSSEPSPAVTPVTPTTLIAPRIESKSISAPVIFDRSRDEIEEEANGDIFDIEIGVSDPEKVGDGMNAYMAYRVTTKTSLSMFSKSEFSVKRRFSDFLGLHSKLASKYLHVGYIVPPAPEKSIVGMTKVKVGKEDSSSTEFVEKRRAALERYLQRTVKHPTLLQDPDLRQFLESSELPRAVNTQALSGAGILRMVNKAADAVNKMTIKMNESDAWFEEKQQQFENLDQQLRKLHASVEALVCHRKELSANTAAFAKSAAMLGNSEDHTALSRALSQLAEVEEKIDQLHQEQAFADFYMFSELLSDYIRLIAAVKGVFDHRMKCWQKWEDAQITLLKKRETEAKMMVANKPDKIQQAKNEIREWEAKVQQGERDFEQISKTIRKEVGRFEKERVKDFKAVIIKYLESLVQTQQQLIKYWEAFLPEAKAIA

Results on 35 targets are retold here after the supplement of paper PMC12819154, “High-throughput peptide-centric local stability assay extends protein–ligand identification to membrane proteins, tissues and bacteria” (Nature Structural & Molecular Biology, 2025).

Compound in this experiment: CN[C@@H]1C[C@H]2O[C@@](C)([C@@H]1OC)n1c3ccccc3c3c4c(c5c6ccccc6n2c5c31)C(=O)NC4 [staurosporine]
Kind of experiment: log2 fold change of tryptic peptide abundance, ligand vs vehicle (limited proteolysis) (log2 ratio); higher = more trypsin-susceptible (destabilized). The following applies: ligand concentration: 20 uM; sample: mouse liver crude lysate; replicate design: treated separately.
“UniProt Q9CWU4 (peptide sequence: SVTRPAFLYNPLNK, peptide start residue: 63)”: the log2 fold change is -0.0739.

As to “UniProt Q9CZS1 (peptide sequence: LFINNEWHDAVSK, peptide start residue: 41)”, the log2 fold change worked out at 0.167.

Consider “UniProt Q9D0D5 (peptide sequence: DRAATAAGAAGLAGGHHR, peptide start residue: 219)”, for which the log2 fold change is -0.631.

In the case of “UniProt Q9CZ04 (peptide sequence: HLSVVTLAAK, peptide start residue: 98)”, the log2 fold change is -0.303.

Take “UniProt Q9D0A0 (peptide sequence: NSESVTPNPR, peptide start residue: 176)”: the log2 fold change came to 0.395.

As for “UniProt Q9CZG9 (peptide sequence: VIPDSDAHR, peptide start residue: 77)”, the log2 fold change was -0.341.

Consider “UniProt Q9CZ91 (peptide sequence: SALSDDINFEK, peptide start residue: 86)”, for which the log2 fold change was 0.266.

Take “UniProt Q9CZA6 (peptide sequence: AIKDQLQK, peptide start residue: 105)”: the log2 fold change came out at 0.304.

On to “UniProt Q9CYW4 (peptide sequence: AQSHNFPNYGLSR, peptide start residue: 55)”, for which the log2 fold change stood at 0.192.

“UniProt Q9CR70 (peptide sequence: SMVPLTQRPGTR, peptide start residue: 53)”: the log2 fold change was -0.263.

Take “UniProt Q9CZP7 (peptide sequence: QREEEWR, peptide start residue: 105)”: the log2 fold change was -0.238.

Consider “UniProt Q9CZ83 (peptide sequence: REEEPEVVDSFDTER, peptide start residue: 103)”, for which the log2 fold change is -0.109.

As for “UniProt Q9D0B5 (peptide sequence: YCQVKPSK, peptide start residue: 99)”, the log2 fold change was found to be 0.327.

In the case of “UniProt Q9CY18 (peptide sequence: GEFDSSEFEVR, peptide start residue: 61)”, the log2 fold change is -0.436.

As to “UniProt Q9CZB0 (peptide sequence: WSLPMALSVCHR, peptide start residue: 61)”, the log2 fold change is -0.632.

As to “UniProt Q9CZB3 (peptide sequence: TYIQTAGLR, peptide start residue: 275)”, the log2 fold change came to 0.276.

Regarding “UniProt Q9CZD5 (peptide sequence: DAFSNTGRK, peptide start residue: 70)”, the log2 fold change is -0.363.

Turning to “UniProt Q9CTH6 (peptide sequence: GTYADDCLVQR, peptide start residue: 138)”, the log2 fold change was 0.34.

For the target “UniProt Q9CU62 (peptide sequence: DCIQYIKEQR, peptide start residue: 555)”, the log2 fold change was -0.561.

Consider “UniProt Q9CZU3 (peptide sequence: DLRPVDNR, peptide start residue: 747)”, for which the log2 fold change was 0.197.

For “UniProt Q9CR89 (peptide sequence: LGSYKPVR, peptide start residue: 349)”, the log2 fold change is 0.555.

Regarding “UniProt Q9CXN7 (peptide sequence: RGGELDINLRPDGR, peptide start residue: 258)”, the log2 fold change is -0.254.

For “UniProt Q9CR83 (peptide sequence: ITEYHLLK, peptide start residue: 36)”, the log2 fold change amounted to 0.182.

Consider “UniProt Q9D0G0 (peptide sequence: DLEVVATPVAR, peptide start residue: 33)”, for which the log2 fold change stood at 0.202.

For the target “UniProt Q9D0D3 (peptide sequence: SNSPDSSTDTSGKR, peptide start residue: 566)”, the log2 fold change was -0.413.

For the target “UniProt Q9CWE0 (peptide sequence: IGTNLPLKPCPR, peptide start residue: 25)”, the log2 fold change is 0.0829.

“UniProt Q9CXV9 (peptide sequence: CKIPSYCR, peptide start residue: 25)”: the log2 fold change is -0.155.

For the target “UniProt Q9CXU1 (peptide sequence: FIDEQQILHWQHYSR, peptide start residue: 96)”, the log2 fold change amounted to 0.253.

In the case of “UniProt Q9CUX1 (peptide sequence: RADLEDKTPDQLNK, peptide start residue: 40)”, the log2 fold change came out at 0.468.

“UniProt Q9D0C1 (peptide sequence: LPEYICPR, peptide start residue: 33)”: the log2 fold change was -0.234.

In the case of “UniProt Q9CZI9 (peptide sequence: AIPFQVAQK, peptide start residue: 170)”, the log2 fold change was -0.434.

With “UniProt Q9CZB6 (peptide sequence: LHPMQFDHKK, peptide start residue: 67)”, the log2 fold change was found to be 0.17.

Take “UniProt Q9CWT3 (peptide sequence: YSVEEAIHK, peptide start residue: 140)”: the log2 fold change amounted to 0.12.

Consider “UniProt Q9CWK8 (peptide sequence: YWEAFLPEAK, peptide start residue: 507)”, for which the log2 fold change amounted to 0.0934.

For “UniProt Q9CRA5 (peptide sequence: KVQEAVLDKWVNDPHR, peptide start residue: 216)”, the log2 fold change was -1.49.
